Test [1] deals with T1, FLAG-AGO1^KKME/Y691E (Arabidopsis thaliana) (UniProt O04379).
T1 sequence: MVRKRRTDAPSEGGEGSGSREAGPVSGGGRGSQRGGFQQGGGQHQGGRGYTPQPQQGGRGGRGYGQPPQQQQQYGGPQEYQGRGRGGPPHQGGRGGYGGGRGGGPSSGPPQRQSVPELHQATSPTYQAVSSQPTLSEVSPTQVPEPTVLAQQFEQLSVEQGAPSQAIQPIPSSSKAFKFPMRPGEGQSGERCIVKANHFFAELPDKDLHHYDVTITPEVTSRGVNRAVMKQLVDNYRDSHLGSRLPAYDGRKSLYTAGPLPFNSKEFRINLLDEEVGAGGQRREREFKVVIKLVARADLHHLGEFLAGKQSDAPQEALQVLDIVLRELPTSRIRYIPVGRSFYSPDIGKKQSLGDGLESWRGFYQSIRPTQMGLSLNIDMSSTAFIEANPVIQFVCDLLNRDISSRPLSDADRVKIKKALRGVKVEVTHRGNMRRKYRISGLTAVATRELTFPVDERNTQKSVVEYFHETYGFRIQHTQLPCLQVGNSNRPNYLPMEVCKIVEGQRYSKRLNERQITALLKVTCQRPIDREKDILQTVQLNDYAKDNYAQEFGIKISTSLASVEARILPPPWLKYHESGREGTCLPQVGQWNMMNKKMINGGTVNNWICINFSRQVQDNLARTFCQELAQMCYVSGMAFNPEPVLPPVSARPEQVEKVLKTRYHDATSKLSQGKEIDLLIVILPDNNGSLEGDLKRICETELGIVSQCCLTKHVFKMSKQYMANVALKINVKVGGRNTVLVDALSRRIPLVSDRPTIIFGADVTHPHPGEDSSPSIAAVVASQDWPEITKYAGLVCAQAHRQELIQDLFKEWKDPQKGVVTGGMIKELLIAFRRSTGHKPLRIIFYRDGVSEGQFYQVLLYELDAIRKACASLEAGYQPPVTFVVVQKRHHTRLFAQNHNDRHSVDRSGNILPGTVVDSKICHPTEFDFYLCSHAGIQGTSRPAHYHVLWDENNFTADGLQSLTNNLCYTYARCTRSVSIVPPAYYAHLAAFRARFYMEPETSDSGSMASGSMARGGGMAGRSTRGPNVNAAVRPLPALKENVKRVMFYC
In words: co-IP.

Test [2] concerns the target T2, FLAG-AGO1^Y691E (Arabidopsis thaliana) (UniProt O04379).
T2 sequence: T1 sequence with E185K, E190K, E304M, A307E
In words: co-IP.

Data on 1 substance can be found in doi:10.1101/2022.10.22.513346 (bioRxiv, 2022).

Residue numbers refer to the chain shown, from its start. No constants are given. Whether binding was seen depends on the method and setting. Binding seen in cells or lysates may run through a third protein. Binding can be weak; no strength is given. Where a sequence is shown, tags or fusion partners need not be part of it.

As for HSP70, the binding result in test [1] and in test [2] was “binds” each time.
